Results are given in words; binding and its absence hold for the method and conditions named. In cells and extracts the contact can be indirect. Some results given as binding are weak or reduced against the parent protein; the word gives no strength.
Target: Hemagglutinin (HA)-tagged Krüppel-like factor 4 (KLF4) (UniProt O43474)
Assay: co-IP; HEK293T cells transfected with HA-KLF4 or its deletion mutants; lysates incubated with anti-HA-agarose; Western blot for DUB3; RIPA buffer, 4 °C for 4 h

Protein sequences, listed by entry. Tags and fused reporters are not part of them. Lines headed by an entry give the natural chain unless they say otherwise; changes in a name come on top.
UniProt O43474, whole entry: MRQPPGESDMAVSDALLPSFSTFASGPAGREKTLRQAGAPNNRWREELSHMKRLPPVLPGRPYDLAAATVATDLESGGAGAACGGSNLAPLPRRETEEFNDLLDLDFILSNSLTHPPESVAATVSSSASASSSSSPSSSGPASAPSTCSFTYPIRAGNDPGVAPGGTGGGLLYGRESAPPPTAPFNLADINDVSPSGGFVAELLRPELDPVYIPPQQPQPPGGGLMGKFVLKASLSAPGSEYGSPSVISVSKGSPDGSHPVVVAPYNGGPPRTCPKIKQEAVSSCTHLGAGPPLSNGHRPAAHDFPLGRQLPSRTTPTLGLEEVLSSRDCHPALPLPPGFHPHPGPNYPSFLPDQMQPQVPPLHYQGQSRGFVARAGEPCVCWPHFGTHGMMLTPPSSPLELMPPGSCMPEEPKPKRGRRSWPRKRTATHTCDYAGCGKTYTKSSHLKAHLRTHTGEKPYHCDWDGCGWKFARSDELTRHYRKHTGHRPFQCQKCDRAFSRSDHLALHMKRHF

B1: deubiquitinating enzyme 3 (DUB3), endogenous in HEK293T cells (enzyme, UniProt Q6R6M4 1-530)
chain: MEDDSLYLGGEWQFNHFSKLTSSRPDAAFAEIQRTSLPEKSPLSSEARVDLCDDLAPVARQLAPRKKLPLSSRRPAAVGAGLQNMGNTCYENASLQCLTYTPPLANYMLSREHSQTCQRPKCCMLCTMQAHITWALHSPGHVIQPSQALAAGFHRGKQEDAHEFLMFTVDAMKKACLPGHKQVDHHSKDTTLIHQIFGGCWRSQIKCLHCHGISDTFDPYLDIALDIQAAQSVKQALEQLVKPEELNGENAYHCGLCLQRAPASKTLTLHTSAKVLILVLKRFSDVTGNKLAKNVQYPECLDMQPYMSQQNTGPLVYVLYAVLVHAGWSCHDGHYFSYVKAQEGQWYKMDDAKVTACSITSVLSQQAYVLFYIQKSEWERHSESVSRGREPRALGAEDTDRRATQGELKRDHPCLQAPELDERLVERATQESTLDHWKFPQEQNKTKPEFNVRKVEGTLPPNVLVIHQSKYKCGMKNHHPEQQSSLLNLSSTTRTDQESVNTGTLASLQGRTRRSKGKNKHSKRALLVCQ
With B1 the binding was “binds”.

Source: paper PMC8983766
